Results on 3 molecules are retold here after doi:10.1101/2022.07.25.501378.

Results are given in words; binding and its absence hold for the method and conditions named. In cells and extracts the contact can be indirect. A yes stands for co-enrichment or nearness to the bait. Other partners may have been found. Where a sequence is shown, tags or fusion partners need not be part of it.

Sequences and labels used below:
B1: YajC, a Sec translocon accessory subunit membrane protein (protein, UniProt P0ADZ7 1-110)
chain: MSFFISDAVAATGAPAQGSPMSLILMLVVFGLIFYFMILRPQQKRTKEHKKLMDSIAKGDEVLTNGGLVGRVTKVAENGYIAIALNDTTEVVIKRDFVAAVLPKGTMKAL
B2: thiol-reductase chaperone DsbG (protein, UniProt P77202 18-248)
chain: EELPAPVKAIEKQGITIIKTFDAPGGMKGYLGKYQDMGVTIYLTPDGKHAISGYMYNEKGENLSNTLIEKEIYAPAGREMWQRMEQSHWLLDGKKDAPVIVYVFADPFCPYCKQFWQQARPWVDSGKVQLRTLLVGVIKPESPATAAAILASKDPAKTWQQYEASGGKLKLNVPANVSTEQMKVLSDNEKLMDDLGANVTPAIYYMSKENTLQQAVGLPDQKTLNIIMGNK
B3: cell division coordinator of peptidoglycan synthesis CpoB (protein, UniProt P45955 27-263)
chain: QAPISSVGSGSVEDRVTQLERISNAHSQLLTQLQQQLSDNQSDIDSLRGQIQENQYQLNQVVERQKQILLQIDSLSSGGAAAQSTSGDQSGAAASTTPTADAGTANAGAPVKSGNANTDYNAAIALVQDKSRQDDAMVAFQNFIKNYPDSTYLPNANYWLGQLNYNKGKKDDAAYYFASVVKNYPKSPKAADAMFKVGVIMQDKGDTAKAKAVYQQVISKYPGTDGAKQAQKRLNAM

The test has as its target T1, HflC with a C-terminal double tag (TwinStrep-Tag followed by a poly-Histidine-Tag) (E. coli) (UniProt P0ABC3).
T1 sequence: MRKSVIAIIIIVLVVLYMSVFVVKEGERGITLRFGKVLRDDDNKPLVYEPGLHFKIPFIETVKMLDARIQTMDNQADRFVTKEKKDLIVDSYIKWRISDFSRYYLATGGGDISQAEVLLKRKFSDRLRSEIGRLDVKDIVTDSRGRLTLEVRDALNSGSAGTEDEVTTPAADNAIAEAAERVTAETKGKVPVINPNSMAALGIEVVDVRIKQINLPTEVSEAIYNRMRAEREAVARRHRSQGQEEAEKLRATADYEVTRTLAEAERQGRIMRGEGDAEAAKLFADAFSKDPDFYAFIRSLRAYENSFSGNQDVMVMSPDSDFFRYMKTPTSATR
Kind of test: cross-linking + affinity purification with mass spectrometry.
In the case of B1, the binding entry is given as “binds”.
The result for B2 reads “binds”.
As to B3, the binding entry is on record as “binds”.
